Patent US20160024208A1
Results are given in words; binding and its absence hold for the method and conditions named. Some results given as binding are weak or reduced against the parent protein; the word gives no strength.

Protein sequences, listed by entry. Tags and fused reporters are not part of them. Lines headed by an entry give the natural chain unless they say otherwise; changes in a name come on top.
UniProt Q15858: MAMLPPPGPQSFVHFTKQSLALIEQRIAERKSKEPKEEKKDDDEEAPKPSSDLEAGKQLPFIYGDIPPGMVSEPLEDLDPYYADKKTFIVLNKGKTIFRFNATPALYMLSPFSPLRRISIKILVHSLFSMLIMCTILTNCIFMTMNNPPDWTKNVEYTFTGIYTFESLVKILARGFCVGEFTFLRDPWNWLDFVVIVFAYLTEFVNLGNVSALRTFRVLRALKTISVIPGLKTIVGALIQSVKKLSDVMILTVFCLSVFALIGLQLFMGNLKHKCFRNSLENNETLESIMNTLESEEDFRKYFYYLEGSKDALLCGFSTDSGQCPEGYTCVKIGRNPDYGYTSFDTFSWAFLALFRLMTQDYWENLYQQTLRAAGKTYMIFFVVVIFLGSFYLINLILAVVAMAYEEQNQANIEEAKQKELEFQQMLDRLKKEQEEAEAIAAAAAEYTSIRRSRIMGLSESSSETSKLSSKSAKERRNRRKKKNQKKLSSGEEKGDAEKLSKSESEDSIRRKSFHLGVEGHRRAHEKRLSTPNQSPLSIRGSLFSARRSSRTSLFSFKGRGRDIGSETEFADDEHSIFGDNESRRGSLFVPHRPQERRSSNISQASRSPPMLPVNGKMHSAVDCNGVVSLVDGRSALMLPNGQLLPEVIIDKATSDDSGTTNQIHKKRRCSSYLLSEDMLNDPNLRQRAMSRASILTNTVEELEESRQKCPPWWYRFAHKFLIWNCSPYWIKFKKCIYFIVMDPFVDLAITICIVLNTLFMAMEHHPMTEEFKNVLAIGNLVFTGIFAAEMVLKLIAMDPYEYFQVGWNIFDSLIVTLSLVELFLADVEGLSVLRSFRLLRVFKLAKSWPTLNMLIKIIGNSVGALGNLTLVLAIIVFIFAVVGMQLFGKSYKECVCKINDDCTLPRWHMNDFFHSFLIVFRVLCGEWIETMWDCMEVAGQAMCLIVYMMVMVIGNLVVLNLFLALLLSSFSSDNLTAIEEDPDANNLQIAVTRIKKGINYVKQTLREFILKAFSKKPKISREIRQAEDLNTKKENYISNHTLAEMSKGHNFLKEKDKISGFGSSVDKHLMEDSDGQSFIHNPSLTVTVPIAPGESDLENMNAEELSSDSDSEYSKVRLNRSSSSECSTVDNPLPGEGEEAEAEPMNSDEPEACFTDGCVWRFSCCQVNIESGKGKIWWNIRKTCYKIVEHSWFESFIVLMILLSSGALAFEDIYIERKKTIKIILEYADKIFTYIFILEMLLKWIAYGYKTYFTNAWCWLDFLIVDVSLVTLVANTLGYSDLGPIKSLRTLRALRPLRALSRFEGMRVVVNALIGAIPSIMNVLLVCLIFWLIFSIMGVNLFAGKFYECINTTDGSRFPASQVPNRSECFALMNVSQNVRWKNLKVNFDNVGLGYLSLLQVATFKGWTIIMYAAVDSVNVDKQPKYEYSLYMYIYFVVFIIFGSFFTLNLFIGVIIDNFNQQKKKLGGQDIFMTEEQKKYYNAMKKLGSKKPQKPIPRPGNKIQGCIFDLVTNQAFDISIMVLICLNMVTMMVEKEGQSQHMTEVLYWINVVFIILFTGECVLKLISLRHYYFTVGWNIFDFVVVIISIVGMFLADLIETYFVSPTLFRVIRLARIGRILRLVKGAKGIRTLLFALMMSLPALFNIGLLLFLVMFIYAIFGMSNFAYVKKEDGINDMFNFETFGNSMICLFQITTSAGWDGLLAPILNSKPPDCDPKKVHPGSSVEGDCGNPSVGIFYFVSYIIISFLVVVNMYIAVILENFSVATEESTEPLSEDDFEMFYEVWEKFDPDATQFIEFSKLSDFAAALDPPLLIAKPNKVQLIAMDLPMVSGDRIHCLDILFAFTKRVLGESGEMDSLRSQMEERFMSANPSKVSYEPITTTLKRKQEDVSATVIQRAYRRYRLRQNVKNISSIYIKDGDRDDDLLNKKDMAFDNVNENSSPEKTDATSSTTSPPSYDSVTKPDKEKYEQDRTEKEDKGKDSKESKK

B1: H4H448B (antibody, V domains shown)
VH: EVQLVQSGGGLVQPGRSLRLSCAASGFTFDDYAMHWVRQAPGKGLEWVSGISWNSGSIGYADSVKGRFTISRDNAKNSLYLQMNSLRAEDTALYYCAKDIEYYDILTGYYSYYIMDVWGQGTTVTVSS
VL: DIRMTQSPSSLSASVGDRGTITCRASQNINSYLNWYQLKPGKAPKLLIFAASSLQSGVPSRFSGSGSGTDFTLTISSLQPEDFATYYCQQSYSSPFTFGQGTKVEIKR
B2: H4H385B (antibody, V domains shown)
VH: QVQLVESGGGVVQPGRSLRLSCAASGFTFSSYGMHWVRQAPGKGLEWVALISYVGSNKHYADSVKGRFTISRDNSKNTLYLQMNSLRAEDTAVYYCAKSRGYSYGLDYWGQGTLVTVSS
VL: DIQMTQSPDSLAVSLGERATINCKSSQTVLHSSNNQNNLVWYQQKPGQPPKLLIYWASTRESGVPDRFSGSGSGTDFTLTISSLQAEDVAIYYCQQYYSTPYTFGQGTKLEIKR
B3: H1H1006B (antibody, V domains shown)
VH: EVQLVESGPGLVKSSETLSLKCTVSGGSISSSGYYWGWIRQPPGKGLEWIGSIHRSGSTFYNPSLKSRVTISVDTSKSQFSLRLTSVTAADTSVYFCGRHGRDYYYGMDVWGQGTTVTVSS
VL: DIQMTQSPSSVSASVGDRVTITCRSSQDINNWLVWYQQKPGKAPKVLIYGASRLQSGVPSRFSGSGSGTDFTLTISSLQPEDFATYYCQQANSFPLTFGGGTKVEIKR
B4: H4H468B (antibody, V domains shown)
VH: EVQLVQSGGGVVQPGRSLRLSCTASGFTFSVYGIHWVRQAPGKGLEWVAVIWYDGSNKYYTDSVKGRFTISRDNSKNTLYLQMNSLRAEDTALYYCAREGDLSSSSGSGGYHYVVDVWGQGTMVTVSS
VL: DIQMTQSPSSLSASVGDRVTITCRASQDIRNDLGWYQQKPGNAPKLLIYSTSSLQSGVPSRFSGSGSGTDFTLTISSLQPEDFATYYCLQDYNYPLTFGGGTKVEIKR
B5: H1M852N (antibody, V domains shown)
VH: QVQLVESGGGVVQPGRSLTLSCAASGFMFNRFGMHWVRQAPGKGLDWVAVIWYDGSNKYYADSVKGRFTISRDNSKNTLYLQVNSLRAEDTAVYYCAREGTPHYYDSSGLDYWGQGTLVTVSS
VL: AIQMTQSPSSLSAYVGDRVTITCRASQDIRNDLGWYQQKPGKAPNLLIYDISSLQSGVPSRFSGSGSGTDFTLTISSLQPEDFATYYCLQDYNYPLTFGGGTKVEIK

What was measured:
[1] = molecular target: Native Nav1.7 (3-1) peptide, human (human); assay: SPR, captured antibody, peptide analyte
[2] = molecular target: full-length human Nav1.7 fused at its N-terminus to GFP, expressed in HEK293 cells (human) (UniProt Q15858); assay: immunostaining of fixed, permeabilized HEK293 cells
[3] = molecular target: human Nav 1.7 in DRG neurons of Scn9a hu/+ mice (human) (UniProt Q15858); assay: immunocytochemistry on cultured DRG neurons, antibody 66 nM
[4] = molecular target: N-Term Biotin-Nav1.7 (3-3) peptide, human (same sequence of EC3-3 for mulatta) (human (same sequence of EC3-3 for mulatta)); assay: ELISA and Biacore summary; mulatta column
[5] = molecular target: N-Term Biotin-Nav1.7 (3-3) peptide, human (same sequence of EC3-3 for mulatta) (human (same sequence of EC3-3 for mulatta)); assay: ELISA (first token of ELISA/Biacore summary)

Binder | binding [4] | binding [5] | other results
B1 | – | – | binding [1]: binds
B2 | – | – | binding [2]: binds
B3 | – | – | binding [3]: binds
B4 | binds | binds | –
B5 | binds | binds | –
